# In the supplement of paper PMC8728848:
# Some of the results follow.
# B1: AntigenI/IIC123 (Streptococcus mutans), C9E3B4 (protein)
# chain: MASMTGGQQMGRIHFHYFKLAVQPQVNKEIRNNNDINIDRTLVAKQSVVKFQLKTADLPAGRDETTSFVLVDPLPSGYQFNPEATKAASPGFDVTYDNATNTVTFKATAATLATFNADLTKSVATIYPTVVGQVLNDGATYKNNFTLTVNDAYGIKSNVVRVTTPGKPNDPDNPNNNYIKPTKVNKNENGVVIDGKTVLAGSTNYYELTWDLDQYKNDRSSADTIQKGFYYVDDYPEEALELRQDLVKITDANGNEVTGVSVDNYTNLEAAPQEIRDVLSKAGIRPKGAFQIFRADNPREFYDTYVKTGIDLKIVSPMVVKKQMGQTGGSYENQAYQIDFGNGYASNIIINNVPKINPKKDVTLTLDPADTNNVDGQTIPLNTVFNYRLIGGIIPADHSEELFEYNFYDDYDQTGDHYTGQYKVFAKVDITFKDGSIIKSGAELTQYTTAEVDTAKGAITIKFKEAFLRSVSIDSAFQAESYIQMKRIAVGTFENTYINTVNGVTYSSLEHHHHHH
# What was measured:
# Test in all cases: glycan array binding signal (z-score within array); higher = stronger binding
# Conditions in all cases: glycan notation: IUPAC condensed, linker removed
# [1] = target: GlcNAc(b1-3)Gal(b1-4)GlcNAc(b1-3)Gal(b1-4)GlcNAc(b1-2)Man(a1-3)[GlcNAc(b1-3)Gal(b1-4)GlcNAc(b1-3)Gal(b1-4)GlcNAc(b1-2)Man(a1-6)]Man(b1-4)GlcNAc(b1-4)[Fuc(a1-6)]GlcNAc
# Procedure, shortened: (§1)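 Negative Z-scores can be read as non-binding. The Z-score is calculated within each array and then averaged across arrays of one protein sequence at different concentrations or buffers and across linkers. Arrays, 3228 in all, were curated from the Consortium for Functional Glycomics database and kept only where the protein sequence was available.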
# [2] = target: GlcNAc(b1-3)Gal(b1-4)GlcNAc(b1-3)Gal(b1-4)GlcNAc(b1-2)[GlcNAc(b1-3)Gal(b1-4)GlcNAc(b1-3)Gal(b1-4)GlcNAc(b1-6)]Man(a1-6)[GlcNAc(b1-3)Gal(b1-4)GlcNAc(b1-3)Gal(b1-4)GlcNAc(b1-2)Man(a1-3)]Man(b1-4)GlcNAc(b1-4)[Fuc(a1-6)]GlcNAc
# Procedure, shortened: as §1
# [3] = target: GlcNAc(b1-3)Gal(b1-4)GlcNAc(b1-3)Gal(b1-4)GlcNAc(b1-3)Gal(b1-4)GlcNAc(b1-2)Man(a1-3)[GlcNAc(b1-3)Gal(b1-4)GlcNAc(b1-3)Gal(b1-4)GlcNAc(b1-3)Gal(b1-4)GlcNAc(b1-2)Man(a1-6)]Man(b1-4)GlcNAc(b1-4)GlcNAc
# Procedure, shortened: as §1
# [4] = target: GlcNAc(b1-3)Gal(b1-4)GlcNAc(b1-3)Gal(b1-4)GlcNAc(b1-3)Gal(b1-4)GlcNAc(b1-2)Man(a1-3)[GlcNAc(b1-3)Gal(b1-4)GlcNAc(b1-3)Gal(b1-4)GlcNAc(b1-3)Gal(b1-4)GlcNAc(b1-2)Man(a1-6)]Man(b1-4)GlcNAc(b1-4)[Fuc(a1-6)]GlcNAc
# Procedure, shortened: as §1
# [5] = target: GlcNAc(b1-3)Gal(b1-4)GlcNAc(b1-3)Gal(b1-4)GlcNAc(b1-3)Gal(b1-4)GlcNAc(b1-2)[GlcNAc(b1-3)Gal(b1-4)GlcNAc(b1-3)Gal(b1-4)GlcNAc(b1-3)Gal(b1-4)GlcNAc(b1-6)]Man(a1-6)[GlcNAc(b1-3)Gal(b1-4)GlcNAc(b1-3)Gal(b1-4)GlcNAc(b1-3)Gal(b1-4)GlcNAc(b1-2)Man(a1-3)]Man(b1-4)GlcNAc(b1-4)[Fuc(a1-6)]GlcNAc
# Procedure, shortened: as §1
# [6] = target: GlcNAc(b1-3)Gal(b1-4)GlcNAc(b1-3)Gal(b1-4)GlcNAc(b1-3)Gal(b1-4)GlcNAc(b1-3)Gal(b1-4)GlcNAc(b1-2)Man(a1-3)[GlcNAc(b1-3)Gal(b1-4)GlcNAc(b1-3)Gal(b1-4)GlcNAc(b1-3)Gal(b1-4)GlcNAc(b1-3)Gal(b1-4)GlcNAc(b1-2)Man(a1-6)]Man(b1-4)GlcNAc(b1-4)GlcNAc
# Procedure, shortened: as §1
# [7] = target: GlcNAc(b1-3)Gal(b1-4)GlcNAc(b1-3)Gal(b1-4)GlcNAc(b1-3)Gal(b1-4)GlcNAc(b1-3)Gal(b1-4)GlcNAc(b1-2)Man(a1-3)[GlcNAc(b1-3)Gal(b1-4)GlcNAc(b1-3)Gal(b1-4)GlcNAc(b1-3)Gal(b1-4)GlcNAc(b1-3)Gal(b1-4)GlcNAc(b1-2)Man(a1-6)]Man(b1-4)GlcNAc(b1-4)[Fuc(a1-6)]GlcNAc
# Procedure, shortened: as §1
# [8] = target: GlcNAc(b1-3)Gal(b1-4)GlcNAc(b1-3)Gal(b1-4)GlcNAc(b1-3)Gal(b1-4)GlcNAc(b1-3)Gal(b1-4)GlcNAc(b1-2)[GlcNAc(b1-3)Gal(b1-4)GlcNAc(b1-3)Gal(b1-4)GlcNAc(b1-3)Gal(b1-4)GlcNAc(b1-3)Gal(b1-4)GlcNAc(b1-6)]Man(a1-6)[GlcNAc(b1-3)Gal(b1-4)GlcNAc(b1-3)Gal(b1-4)GlcNAc(b1-3)Gal(b1-4)GlcNAc(b1-3)Gal(b1-4)GlcNAc(b1-2)Man(a1-3)]Man(b1-4)GlcNAc(b1-4)[Fuc(a1-6)]GlcNAc
# Procedure, shortened: as §1
# [9] = target: GlcNAc(b1-3)Gal(b1-4)GlcNAc(b1-3)Gal(b1-4)GlcNAc(b1-3)GalNAc
# Procedure, shortened: as §1
# [10] = target: GlcNAc(b1-3)Gal(b1-4)GlcNAc(b1-3)GalNAc
# Procedure, shortened: as §1
# [11] = target: GlcNAc(b1-3)Gal(b1-4)GlcNAc(b1-3)[GlcNAc(b1-3)Gal(b1-4)GlcNAc(b1-3)]GalNAc
# Procedure, shortened: as §1
# [12] = target: GlcNAc(b1-3)Gal(b1-4)GlcNAc(b1-6)[Gal(b1-3)]GalNAc
# Procedure, shortened: as §1
# [13] = target: GlcNAc(b1-3)Gal(b1-4)GlcNAc(b1-6)[GlcNAc(b1-3)Gal(b1-3)]GalNAc
# Procedure, shortened: as §1
# [14] = target: GlcNAc(b1-3)Gal(b1-4)GlcNAc(b1-6)[GlcNAc(b1-3)]Gal(b1-4)GlcNAc
# Procedure, shortened: as §1
# GlcNAc(b1-3)GalNAc = target: GlcNAc(b1-3)GalNAc
# Procedure, shortened: as §1
# GlcNAc(b1-3)Man = target: GlcNAc(b1-3)Man
# Procedure, shortened: as §1
# [15] = target: GlcNAc(b1-3)[GlcNAc(b1-4)][GlcNAc(b1-6)]GlcNAc
# Procedure, shortened: as §1
# [16] = target: GlcNAc(b1-3)[GlcNAc(b1-6)]Gal(b1-4)GlcNAc
# Procedure, shortened: as §1
# [17] = target: GlcNAc(b1-3)[GlcNAc(b1-6)]GalNAc
# Procedure, shortened: as §1
# [18] = target: GlcNAc(b1-4)Gal(b1-4)GlcNAc
# Procedure, shortened: as §1
# GlcNAc(b1-4)GlcNAc = target: GlcNAc(b1-4)GlcNAc
# Procedure, shortened: as §1
# [19] = target: GlcNAc(b1-4)GlcNAc(b1-4)GlcNAc
# Procedure, shortened: as §1
# [20] = target: GlcNAc(b1-4)GlcNAc(b1-4)GlcNAc(b1-4)GlcNAc(b1-4)GlcNAc
# Procedure, shortened: as §1
# [21] = target: GlcNAc(b1-4)GlcNAc(b1-4)GlcNAc(b1-4)GlcNAc(b1-4)GlcNAc(b1-4)GlcNAc
# Procedure, shortened: as §1
# [22] = target: GlcNAc(b1-4)[GlcNAc(b1-6)]GalNAc
# Procedure, shortened: as §1
# [23] = target: GlcNAc(b1-6)Gal(b1-4)GlcNAc
# Procedure, shortened: as §1
# GlcNAc(b1-6)GalNAc = target: GlcNAc(b1-6)GalNAc
# Procedure, shortened: as §1
# [24] = target: GlcNAc6S(b1-3)Gal(b1-4)GlcNAc
# Procedure, shortened: as §1
# Kdn(a2-3)Gal(b1-3)GalNAc = target: Kdn(a2-3)Gal(b1-3)GalNAc
# Procedure, shortened: as §1
# Kdn(a2-3)Gal(b1-3)GlcNAc = target: Kdn(a2-3)Gal(b1-3)GlcNAc
# Procedure, shortened: as §1
# Kdn(a2-3)Gal(b1-4)Glc = target: Kdn(a2-3)Gal(b1-4)Glc
# Procedure, shortened: as §1
# Kdn(a2-3)Gal(b1-4)GlcNAc = target: Kdn(a2-3)Gal(b1-4)GlcNAc
# Procedure, shortened: as §1
# [25] = target: Kdn(a2-3)Gal(b1-4)[Fuc(a1-3)]GlcNAc
# Procedure, shortened: as §1
# Kdn(a2-6)Gal(b1-4)GlcNAc = target: Kdn(a2-6)Gal(b1-4)GlcNAc
# Procedure, shortened: as §1
# [26] = target: Man(a1-2)Man(a1-2)Man(a1-3)Man
# Procedure, shortened: as §1
# [27] = target: Man(a1-2)Man(a1-2)Man(a1-6)[Man(a1-3)]Man
# Procedure, shortened: as §1
# Man(a1-2)Man(a1-3)Man = target: Man(a1-2)Man(a1-3)Man
# Procedure, shortened: as §1
# [28] = target: Man(a1-2)Man(a1-3)[Man(a1-2)Man(a1-6)]Man
# Procedure, shortened: as §1
binder,measurement,setting,value
B1,glycan array binding signal (z-score),[1],1.92
same,glycan array binding signal (z-score),[2],1.34
same,glycan array binding signal (z-score),[3],-0.616
same,glycan array binding signal (z-score),[4],0.852
same,glycan array binding signal (z-score),[5],0.135
same,glycan array binding signal (z-score),[6],1.73
same,glycan array binding signal (z-score),[7],1.61
same,glycan array binding signal (z-score),[8],-0.444
same,glycan array binding signal (z-score),[9],-1.31
same,glycan array binding signal (z-score),[10],-0.251
same,glycan array binding signal (z-score),[11],-1.2
same,glycan array binding signal (z-score),[12],0.421
same,glycan array binding signal (z-score),[13],-0.317
same,glycan array binding signal (z-score),[14],-0.94
same,glycan array binding signal (z-score),GlcNAc(b1-3)GalNAc,-0.207
same,glycan array binding signal (z-score),GlcNAc(b1-3)Man,-0.319
same,glycan array binding signal (z-score),[15],-0.796
same,glycan array binding signal (z-score),[16],-1.45
same,glycan array binding signal (z-score),[17],-0.409
same,glycan array binding signal (z-score),[18],-0.801
same,glycan array binding signal (z-score),GlcNAc(b1-4)GlcNAc,1.48
same,glycan array binding signal (z-score),[19],-1.06
same,glycan array binding signal (z-score),[20],-0.525
same,glycan array binding signal (z-score),[21],-0.362
same,glycan array binding signal (z-score),[22],-0.907
same,glycan array binding signal (z-score),[23],0.455
same,glycan array binding signal (z-score),GlcNAc(b1-6)GalNAc,0.319
same,glycan array binding signal (z-score),[24],-0.422
same,glycan array binding signal (z-score),Kdn(a2-3)Gal(b1-3)GalNAc,1.71
same,glycan array binding signal (z-score),Kdn(a2-3)Gal(b1-3)GlcNAc,0.577
same,glycan array binding signal (z-score),Kdn(a2-3)Gal(b1-4)Glc,0.395
same,glycan array binding signal (z-score),Kdn(a2-3)Gal(b1-4)GlcNAc,-0.458
same,glycan array binding signal (z-score),[25],0.505
same,glycan array binding signal (z-score),Kdn(a2-6)Gal(b1-4)GlcNAc,0.238
same,glycan array binding signal (z-score),[26],-0.117
same,glycan array binding signal (z-score),[27],0.586
same,glycan array binding signal (z-score),Man(a1-2)Man(a1-3)Man,-0.486
same,glycan array binding signal (z-score),[28],-0.933

# Laid out differently: results already given
binder | measurement | setting | value
B1 | glycan array binding signal (z-score) | [3] | -0.616
same | glycan array binding signal (z-score) | [5] | 0.135
same | glycan array binding signal (z-score) | GlcNAc(b1-3)GalNAc | -0.207
